# Screening data, single-dose tests

The chains behind the UniProt entries cited, without tags or fusion partners. Residues count along the entry.
UniProt P9WNZ1, whole entry: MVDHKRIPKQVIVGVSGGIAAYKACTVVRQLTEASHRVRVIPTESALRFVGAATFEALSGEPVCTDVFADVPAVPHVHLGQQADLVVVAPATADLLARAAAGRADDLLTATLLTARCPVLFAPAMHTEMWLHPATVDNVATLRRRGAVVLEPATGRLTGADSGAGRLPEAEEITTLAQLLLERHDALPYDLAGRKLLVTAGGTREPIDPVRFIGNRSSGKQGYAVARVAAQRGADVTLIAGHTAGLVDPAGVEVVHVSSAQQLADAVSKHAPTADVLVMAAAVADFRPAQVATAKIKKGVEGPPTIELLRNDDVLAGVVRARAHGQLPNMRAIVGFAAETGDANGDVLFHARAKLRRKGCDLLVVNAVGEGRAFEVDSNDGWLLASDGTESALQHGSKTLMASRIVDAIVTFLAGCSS
UniProt I6X8D2, whole entry: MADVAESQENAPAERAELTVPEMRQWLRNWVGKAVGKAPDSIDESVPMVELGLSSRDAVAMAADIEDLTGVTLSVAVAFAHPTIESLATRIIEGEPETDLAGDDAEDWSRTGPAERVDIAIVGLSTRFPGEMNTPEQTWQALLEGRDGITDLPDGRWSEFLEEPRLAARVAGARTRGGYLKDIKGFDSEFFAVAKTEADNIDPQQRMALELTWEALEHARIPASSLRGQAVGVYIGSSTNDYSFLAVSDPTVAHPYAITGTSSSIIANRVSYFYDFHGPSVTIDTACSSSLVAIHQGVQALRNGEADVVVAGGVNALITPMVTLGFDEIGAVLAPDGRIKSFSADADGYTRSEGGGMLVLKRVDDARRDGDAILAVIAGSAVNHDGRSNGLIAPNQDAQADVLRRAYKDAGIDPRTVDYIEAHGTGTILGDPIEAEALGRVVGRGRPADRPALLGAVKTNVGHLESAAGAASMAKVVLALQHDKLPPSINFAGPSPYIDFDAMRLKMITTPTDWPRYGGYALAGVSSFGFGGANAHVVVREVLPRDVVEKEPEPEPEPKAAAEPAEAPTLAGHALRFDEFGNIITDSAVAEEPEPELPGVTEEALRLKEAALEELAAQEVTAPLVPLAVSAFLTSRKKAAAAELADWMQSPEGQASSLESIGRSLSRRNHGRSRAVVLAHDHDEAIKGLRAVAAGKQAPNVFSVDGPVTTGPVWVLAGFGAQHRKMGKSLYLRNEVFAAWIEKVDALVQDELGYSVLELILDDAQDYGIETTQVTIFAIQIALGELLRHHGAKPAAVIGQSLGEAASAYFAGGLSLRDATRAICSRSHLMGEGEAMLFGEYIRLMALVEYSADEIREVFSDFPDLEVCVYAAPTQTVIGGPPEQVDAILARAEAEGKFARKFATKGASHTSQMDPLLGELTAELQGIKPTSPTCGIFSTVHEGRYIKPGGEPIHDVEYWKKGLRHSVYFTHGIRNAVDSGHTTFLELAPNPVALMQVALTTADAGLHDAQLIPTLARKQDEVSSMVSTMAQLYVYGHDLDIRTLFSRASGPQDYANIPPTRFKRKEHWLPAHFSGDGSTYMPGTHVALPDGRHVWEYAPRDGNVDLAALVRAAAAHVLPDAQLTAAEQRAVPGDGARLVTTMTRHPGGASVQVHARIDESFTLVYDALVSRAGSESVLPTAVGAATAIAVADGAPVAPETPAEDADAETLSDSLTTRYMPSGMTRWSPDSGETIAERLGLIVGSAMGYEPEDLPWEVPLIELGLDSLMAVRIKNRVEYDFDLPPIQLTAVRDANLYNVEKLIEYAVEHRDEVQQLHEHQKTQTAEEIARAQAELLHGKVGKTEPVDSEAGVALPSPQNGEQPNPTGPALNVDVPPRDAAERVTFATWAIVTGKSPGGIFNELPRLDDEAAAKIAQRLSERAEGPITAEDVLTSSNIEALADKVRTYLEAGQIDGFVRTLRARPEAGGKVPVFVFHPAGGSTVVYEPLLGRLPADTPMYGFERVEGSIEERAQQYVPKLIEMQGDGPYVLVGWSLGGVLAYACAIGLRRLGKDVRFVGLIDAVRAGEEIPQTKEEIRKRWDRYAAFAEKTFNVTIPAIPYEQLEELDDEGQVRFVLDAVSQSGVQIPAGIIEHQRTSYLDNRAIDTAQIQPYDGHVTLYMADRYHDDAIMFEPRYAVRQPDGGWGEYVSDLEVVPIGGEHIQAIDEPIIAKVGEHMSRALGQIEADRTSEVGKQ
UniProt P9WPC5, whole entry: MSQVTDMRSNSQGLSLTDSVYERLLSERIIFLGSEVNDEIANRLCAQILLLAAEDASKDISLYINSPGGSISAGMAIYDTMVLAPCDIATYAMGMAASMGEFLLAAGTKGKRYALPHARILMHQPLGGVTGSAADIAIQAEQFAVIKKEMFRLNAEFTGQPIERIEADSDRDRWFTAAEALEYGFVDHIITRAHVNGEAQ
UniProt P9WPC3, whole entry partner: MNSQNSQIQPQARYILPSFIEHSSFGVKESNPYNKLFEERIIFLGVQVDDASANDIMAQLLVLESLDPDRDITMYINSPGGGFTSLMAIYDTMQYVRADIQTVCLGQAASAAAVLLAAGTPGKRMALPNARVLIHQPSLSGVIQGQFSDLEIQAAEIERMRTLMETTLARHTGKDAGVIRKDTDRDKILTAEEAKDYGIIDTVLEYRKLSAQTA
UniProt A4I591, 1-473: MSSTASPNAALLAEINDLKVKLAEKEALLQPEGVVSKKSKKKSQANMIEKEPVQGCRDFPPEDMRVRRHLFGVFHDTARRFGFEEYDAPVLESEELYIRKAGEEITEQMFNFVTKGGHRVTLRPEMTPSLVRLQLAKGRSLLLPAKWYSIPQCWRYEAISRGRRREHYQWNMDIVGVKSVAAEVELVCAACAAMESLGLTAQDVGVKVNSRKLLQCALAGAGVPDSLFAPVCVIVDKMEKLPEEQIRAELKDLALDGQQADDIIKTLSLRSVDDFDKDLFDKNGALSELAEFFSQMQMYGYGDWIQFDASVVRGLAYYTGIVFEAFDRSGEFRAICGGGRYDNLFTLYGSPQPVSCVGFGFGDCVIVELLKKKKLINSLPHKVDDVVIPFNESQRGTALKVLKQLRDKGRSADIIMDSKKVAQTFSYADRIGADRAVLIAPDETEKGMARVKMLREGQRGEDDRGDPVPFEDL
UniProt P9WFT3, whole entry: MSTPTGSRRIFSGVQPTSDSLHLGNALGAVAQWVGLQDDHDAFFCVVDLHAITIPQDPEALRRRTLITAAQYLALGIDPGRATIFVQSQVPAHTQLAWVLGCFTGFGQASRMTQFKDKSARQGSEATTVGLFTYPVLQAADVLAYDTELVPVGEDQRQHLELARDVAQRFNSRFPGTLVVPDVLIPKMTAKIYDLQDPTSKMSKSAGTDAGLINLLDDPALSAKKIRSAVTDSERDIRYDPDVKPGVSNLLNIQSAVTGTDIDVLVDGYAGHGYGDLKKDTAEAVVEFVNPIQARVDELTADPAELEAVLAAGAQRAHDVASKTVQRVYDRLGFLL

From ChEMBL document CHEMBL3988442, “University of Dundee, Small-Polar-MMV Screening Library” (2021).

CoaBC: 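Coenzyme A biosynthesis protein CoaBC, Mycobacterium tuberculosis (UniProt P9WNZ1). Enzyme assay of CoaBC with a phosphate dye (Biomol Green) read at 650 nm. Concentration: 30 µM. Direction is inferred from only a few compounds that gave an IC50; most scored high, so higher reads as stronger inhibition. Most strong results did not repeat in a second test. About 67,000 compounds were tested under these conditions; 0.06% (about 40) showed 50% or more at least once.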
Pks13 thioesterase: 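Polyketide synthase Pks13, Mycobacterium tuberculosis (UniProt I6X8D2). Enzyme assay of the thioesterase domain of polyketide synthase 13; the read-out is not stated. Tested at 30 µM. The record gives no direction; the compounds picked for IC50 retests had high values, so higher reads as stronger inhibition. Size under these conditions: about 67,000 compounds, about 300 of them at 50% or above in at least one test.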
ClpP1P2: 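Protease assay of ClpP1P2, read by the AMC dye that it sets free. Target: ClpP1P2, Mycobacterium tuberculosis (UniProt P9WPC5 and UniProt P9WPC3). Concentration: 50 µM. Direction is inferred from only a few compounds that gave an IC50; most scored high, so higher reads as stronger inhibition. Most other retested compounds had strongly negative values. Of about 69,000 compounds tested this way, about 10 (0.015%) reached 50% or more in at least one test.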
LiHisRS: 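Histidine-tRNA ligase, Leishmania infantum (UniProt A4I591). Enzyme assay of histidyl-tRNA synthetase; the read-out is not stated. Tested at 30 µM. The record gives no direction; compounds that gave an IC50 in retests scored well above the rest, so higher reads as stronger inhibition. The assay is labelled LdHisRS but filed under L. infantum. Of about 69,000 compounds tested this way, about 410 (0.6%) reached 50% or more in at least one test.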
MtTrpRS: 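Tryptophan-tRNA ligase, Mycobacterium tuberculosis (UniProt P9WFT3). Enzyme assay of tryptophanyl-tRNA synthetase; the read-out is not stated. Concentration: 10 µM. Higher most likely means stronger inhibition; the record gives no direction and few retests gave an IC50. Of about 65,000 compounds tested this way, about 64 (0.098%) reached 50% or more in at least one test.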

Results are given as percent effect.
How 0% and 100% were set is not recorded. Most values in the screen are low, and negative values occur.
This is an unselected part of the compounds tested.

For COCCN(C)C[C@@H]1CN(C(=O)c2ccc(SC)cc2)C[C@@H]1CO the result was CoaBC: -2.286%; Pks13 thioesterase: -12.19%; ClpP1P2: 21.04%; LiHisRS: -2.247%; MtTrpRS: -5.429%. With C[C@H]1C[C@H]2CN(C(=O)c3ccncn3)CC[C@H]2O1 the screen gave CoaBC: 6.418%; Pks13 thioesterase: -10.26%; ClpP1P2: -3.925%; LiHisRS: 15.38%; MtTrpRS: 2.064%. With Cc1nc2c(c(NCC(c3cccnc3)N3CCOCC3)n1)CCNC2 (configuration not stated) the screen gave CoaBC: 7.918%; Pks13 thioesterase: -25.22%; ClpP1P2: -12.7%; LiHisRS: 25.97%; MtTrpRS: -0.4944%. For O=C1CCCN1CCC1CCCCN1C(=O)c1ccc(SCCO)cc1 (configuration not stated) the result was CoaBC: -0.6036%; Pks13 thioesterase: -11.5%; ClpP1P2: 10.88%; LiHisRS: 7.692%; MtTrpRS: 1.024%. CCOc1c(Cl)cc(Cl)cc1CNCCCn1ccnc1 read CoaBC: -32.76%; Pks13 thioesterase: -36.69%; ClpP1P2: 7.161%; LiHisRS: 58.33%; MtTrpRS: -5.178%. Result for Cc1nc(C)n(CC2CCCN(Cc3ccc(C(N)=O)cc3)C2)n1 (configuration not stated) was CoaBC: -0.2564%; Pks13 thioesterase: -9.196%; ClpP1P2: 8.184%; LiHisRS: 5.333%; MtTrpRS: -0.07819%. Cc1cc(C)n(NC(=O)c2ccc(Cl)cc2Cl)c(=O)c1 read CoaBC: 1.104%; Pks13 thioesterase: 5.107%; ClpP1P2: 14.13%; LiHisRS: 4.124%. O=C(c1ccccc1N1CCOCC1)N1CCCC(n2cccn2)C1 (configuration not stated) gave CoaBC: 5.813%; Pks13 thioesterase: -9.872%; ClpP1P2: 4.231%; LiHisRS: 26.19%; MtTrpRS: -1.017%.

For O=C(NCCN1CCCc2ccccc21)c1scnc1Cl the result was CoaBC: -0.5008%; Pks13 thioesterase: -5.731%; ClpP1P2: -0.4876%; LiHisRS: 13.64%; MtTrpRS: 0.6823%. With COc1cccc2[nH]c(C(=O)N3CCNCC3C(N)=O)cc12 (configuration not stated) the screen gave CoaBC: 2.628%; Pks13 thioesterase: -22.2%; ClpP1P2: -8.665%; LiHisRS: 8.696%; MtTrpRS: 17.14%. Cc1cccc(CN2CCc3c(nc(N4CCC(C)CC4)[nH]c3=O)C2)n1 read CoaBC: -0.5556%; Pks13 thioesterase: -41.77%; ClpP1P2: -0.8851%; LiHisRS: 19.44%; MtTrpRS: 3.595%. CNC(=O)CN(C)Cc1ccc(F)cc1Cl gave CoaBC: 10.45%; Pks13 thioesterase: -19.18%; ClpP1P2: 3.556%; LiHisRS: 9.091%; MtTrpRS: 3.97%. For O=C(NCCO)c1cc(-c2ccc3c(c2)CCO3)n[nH]1 the result was CoaBC: 0.5051%; Pks13 thioesterase: -14.92%; ClpP1P2: -10.6%; LiHisRS: 13.16%; MtTrpRS: 2.451%. Cn1c(CCC(=O)N2CCCC3(CNC(=O)O3)C2)nc2cccnc21 (configuration not stated) gave CoaBC: 18.54%; ClpP1P2: -2.605%; LiHisRS: 16.39%; MtTrpRS: 1.22%. CC(Cc1cccc(F)c1)C(=O)NS(=O)(=O)c1cnn(C)c1 (configuration not stated) gave CoaBC: -1.84%; Pks13 thioesterase: -12.85%; ClpP1P2: 0.9288%; LiHisRS: 13.73%; MtTrpRS: -3.372%.

For reference, 2 entries once more:

{"compound": "O=C(NCCO)c1cc(-c2ccc3c(c2)CCO3)n[nH]1", "CoaBC": 0.5051, "Pks13 thioesterase": -14.92, "ClpP1P2": -10.6, "LiHisRS": 13.16, "MtTrpRS": 2.451}
{"compound": "Cc1cc(C)n(NC(=O)c2ccc(Cl)cc2Cl)c(=O)c1", "CoaBC": 1.104, "Pks13 thioesterase": 5.107, "ClpP1P2": 14.13, "LiHisRS": 4.124}